# Percent effect of library compounds

By UniProt entry, the sequences of proteins in these tests, tags left out.
UniProt P9WPC5, whole entry: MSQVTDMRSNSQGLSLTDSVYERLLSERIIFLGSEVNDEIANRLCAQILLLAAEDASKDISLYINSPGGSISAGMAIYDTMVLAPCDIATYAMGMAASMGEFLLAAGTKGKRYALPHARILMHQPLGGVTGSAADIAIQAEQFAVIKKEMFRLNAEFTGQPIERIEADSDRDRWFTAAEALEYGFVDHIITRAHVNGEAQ
UniProt P9WPC3, whole entry partner: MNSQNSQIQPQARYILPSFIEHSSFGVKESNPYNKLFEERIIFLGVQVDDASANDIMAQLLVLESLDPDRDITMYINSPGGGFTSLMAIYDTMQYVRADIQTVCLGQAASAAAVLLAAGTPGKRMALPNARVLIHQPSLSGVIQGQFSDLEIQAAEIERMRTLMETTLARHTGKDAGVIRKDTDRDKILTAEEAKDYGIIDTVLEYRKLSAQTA
UniProt P9WNZ1, whole entry: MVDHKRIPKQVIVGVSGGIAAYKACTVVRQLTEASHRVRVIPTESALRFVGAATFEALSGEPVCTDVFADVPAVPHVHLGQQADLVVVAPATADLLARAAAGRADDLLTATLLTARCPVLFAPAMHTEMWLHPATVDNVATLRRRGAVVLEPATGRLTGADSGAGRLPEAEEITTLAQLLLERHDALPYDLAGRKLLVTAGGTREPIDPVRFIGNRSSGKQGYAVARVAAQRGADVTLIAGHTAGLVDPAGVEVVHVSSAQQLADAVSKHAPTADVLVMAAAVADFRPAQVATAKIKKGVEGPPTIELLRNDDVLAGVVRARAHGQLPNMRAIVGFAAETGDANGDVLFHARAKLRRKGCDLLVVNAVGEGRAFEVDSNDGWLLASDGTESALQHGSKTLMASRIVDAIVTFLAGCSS

The values are deposited in ChEMBL (CHEMBL3988442, “University of Dundee, Small-Polar-MMV Screening Library” (2021)).

The filed quantity is “Percent Effect” (%). The record does not define 0% and 100%; most values in the screen are far below 50% and negative numbers occur (in some assays of this library far below -100). The compounds are a random part of those screened. A dash means the value is not listed here; it may have been measured.

ClpP1P2: 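ClpP1P2, Mycobacterium tuberculosis (UniProt P9WPC5 and UniProt P9WPC3). Protease assay of ClpP1P2, read by the AMC dye that it sets free. Concentration: 50 µM. Higher reads as stronger inhibition, judged from the few compounds that gave an IC50. Most other retested compounds had strongly negative values. Size under these conditions: about 69,000 compounds, about 10 of them at 50% or above in at least one test.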
CoaBC: 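Enzyme assay of CoaBC with a phosphate dye (Biomol Green) read at 650 nm. Target: Coenzyme A biosynthesis protein CoaBC, Mycobacterium tuberculosis (UniProt P9WNZ1). Concentration: 30 µM. Higher reads as stronger inhibition, judged from the few compounds that gave an IC50. Most strong results did not repeat in a second test. Size under these conditions: about 67,000 compounds, about 40 of them at 50% or above in at least one test.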

compound,ClpP1P2,CoaBC
CN1CC(=O)N(c2ccsc2)CC12CCN(C(=O)c1ccc[nH]1)C2 (stereo not drawn),-4.06,-2.231
CC(=O)N1CCC(c2nccnc2-c2ccc(C(=O)O)cc2)CC1,-7.108,-1.225
Cc1c(CN2CCC(C(=O)O)(n3cccn3)CC2)oc2ccccc12,-8.49,6.311
CN(C)C(=O)c1ccn(-c2ccc3ccccn23)n1,0.1742,1.844
Cc1ccc(C(=O)N2CCSCC2)cc1NC(=O)Cn1cncn1,0.6907,12.26
CN(Cc1cnn(C)c1)C(=O)C1COCC(=O)N1Cc1ccccc1 (stereo not drawn),-1.581,0.4902
Cc1ncsc1C(=O)N1CCn2nc(CN3CCSCC3)cc2C1,-1.37,5.242
CN(C)S(=O)(=O)N1CC[C@]2(C[C@@H](Oc3ncccc3F)CO2)C1,1.758,0.8403
Cc1cc2[nH]c(CN3CCOC(Cc4ccccc4)C3)cc(=O)n2n1 (stereo not drawn),11.38,3.922
O=C(NCc1nncn1C1CC1)C1(c2ccc(F)cc2)CCOCC1,-5.203,1.202
Cc1cn2nc(N3CCCN(Cc4noc(C)n4)CC3)sc2n1,4.843,-0.5222
Cc1cc(C(=O)Nc2ccn(CCCN3CCCC3)n2)no1,5.92,0.241
COc1cc(C)ccc1OCC(=O)Nc1ccnc(OCCN(C)C)c1,-10.12,-22.58
O=C(NC1CCCC1)c1nc2c(o1)CN(CCO)C2,3.093,17.42
COc1cc(N2CCC3(CC2)CC(N2CCOCC2)CO3)ncn1 (stereo not drawn),-9.63,3.308
O=S(=O)(CCc1ccccc1)Nc1cc(Cl)ccn1,12.04,-
Cc1nn(C)c(C)c1NC(=O)Nc1cccnc1N1CCCC1,11.81,5.447
Cc1noc(C2CCCN(C(=O)c3cc(Cl)c(Cl)n3C)C2)n1 (stereo not drawn),-2.237,-4.497
COc1ccccc1CCNC(=O)NCC(=O)Nc1cccnc1,0.4335,-23.18
O=C(c1ccccc1)N1CCCN(C(=O)c2ncncc2Cl)CC1,9.006,2.419
CC(C(=O)Nc1cc(F)ccc1F)N1CCN(Cc2ncc[nH]2)CC1 (stereo not drawn),-7.125,-1.399
O=C(CCn1cncn1)NCC1CCCC1,-4.506,7.2
Cc1cnn(C2CCCN(C(=O)c3cc(C4CC4)on3)C2)c1 (stereo not drawn),2.158,2.85
O[C@@H]1CN(Cc2cccnc2)C[C@H]1Oc1ccccc1,13.22,2.696
CC(C)(NC(=O)c1cnc(-c2ccccc2F)s1)C(N)=O,19.84,1.459
COCCN(C)C[C@@H]1CN(C(=O)c2ccc(O)c(C)c2)C[C@@H]1CO,-2.768,1.805
CCOC(=O)[C@]12CCCN(Cc3ccsc3)C[C@H]1CN(CCOC)C2,-6.234,3.268
Cc1cc(C(=O)N2CC[C@H](OCC3CC3)[C@@H]2Cc2cccnc2)no1,-2.039,-0.1269
O=C(NC1CC1)C1CN(c2nc3ccccc3s2)CCN1 (stereo not drawn),-2.403,12.5
Cn1cnc2c1CCN(Cc1csc(C3CCCCC3)n1)C2,-17.03,5.257
Cc1nn2cc(CCNC(=O)c3cc(C(C)C)nn3C)nc2s1,13.94,-2.746
COCC(C)(NC(=O)c1cc(Cl)c(-n2cccc2)cc1OC)C(N)=O (stereo not drawn),-3.856,9.223
COCCO[C@H]1CCN(C(=O)c2ccsc2)[C@H]1Cc1cnn(C)c1,4.237,3.75
Cc1ccnc(NCc2cccc(OCCN3CCOCC3)c2)n1,15.11,2.539
NC(=O)CN1CCC(NC(=O)N2CCCC2c2ccncc2)CC1 (stereo not drawn),10.16,7.923
CCC[C@H]1CN(CCCO)C[C@@H]1NC(=O)Cn1cc(C)cn1,5.483,0.5115
CCOCC1CN(C(=O)Cc2ccccn2)Cc2cn(C)nc21 (stereo not drawn),11.33,1.261
Cc1cc(C)n(CC(C)CNC(=O)NCc2csc(C)n2)n1 (stereo not drawn),12.55,-0.3891
COc1ccc(C)cc1C(C)NC(=O)Cn1ccc(=O)n(C)c1=O (stereo not drawn),-13.76,-4.558
CC1CN(c2ncccc2C(=O)Nc2cccc3c2CCCC3)CCN1 (stereo not drawn),-6.95,3.641
CC(CNC(=O)c1ccon1)Oc1cccc(Br)c1 (stereo not drawn),-15.43,-0.489
CC1(C)CC(N2Cc3nc(N)ncc3C2=O)CC(C)(C)N1,-3.125,9.091
O=C(NCCn1ccnc1)N1CCN(Cc2cccs2)CC1,-5.36,1.581

The first 5 entries again:

With CN1CC(=O)N(c2ccsc2)CC12CCN(C(=O)c1ccc[nH]1)C2 (stereo not drawn) the screen gave ClpP1P2: -4.06%; CoaBC: -2.231%.
With CC(=O)N1CCC(c2nccnc2-c2ccc(C(=O)O)cc2)CC1 the screen gave ClpP1P2: -7.108%; CoaBC: -1.225%.
With Cc1c(CN2CCC(C(=O)O)(n3cccn3)CC2)oc2ccccc12 the screen gave ClpP1P2: -8.49%; CoaBC: 6.311%.
With CN(C)C(=O)c1ccn(-c2ccc3ccccn23)n1 the screen gave ClpP1P2: 0.1742%; CoaBC: 1.844%.
With Cc1ccc(C(=O)N2CCSCC2)cc1NC(=O)Cn1cncn1 the screen gave ClpP1P2: 0.6907%; CoaBC: 12.26%.